The name of at least one read-out is uncertain.
Tested on: ECL1002
Assay: Tigemonam potentiation (MPC@4), strain ECL1002
Format: cell-based
Details: minimum BLI concentration inhibiting growth with tigemonam 4 μg/mL; tested up to 40 μg/mL

| Structure (SMILES) | TIG MPC4 ECL1002 |
| --- | --- |
| O=C([O-])c1c(-c2ccn[nH]2)ccc2c1O[B-](O)(O)CC2.[Na+].[Na+] [Compound 15, Disodium; 4,4-dihydroxy-8-(1H-pyrazol-5-yl)-5-oxa-4-boranuidabicyclo[4.4.0]deca-1(6),7,9-triene-7-carboxylate] | X (X = MPC@4 ≤ 5 μg/mL) |
| COc1c(Cl)cc2c(c1C(=O)O)OB(O)CC2 [Compound 41, 6-Chloro-2-hydroxy-7-methoxy-3,4-dihydro-1,2-benzoxaborinine-8-carboxylic acid] | X (X = MPC@4 ≤ 5 μg/mL) |
| NCC#CCOc1ccc2c(c1C(=O)[O-])O[B-](O)(O)CC2.[Na+].[Na+] [Compound 32, Disodium; 8-(4-aminobut-2-ynoxy)-4,4-dihydroxy-5-oxa-4-boranuidabicyclo[4.4.0]deca-1(6),7,9-triene-7-carboxylate] | X (X = MPC@4 ≤ 5 μg/mL) |
| N#CCOc1ccc2c(c1C(=O)O)OB(O)CC2 [Compound 47, 7-(Cyanomethoxy)-2-hydroxy-3,4-dihydro-1,2-benzoxaborinine-8-carboxylic acid] | X (X = MPC@4 ≤ 5 μg/mL) |
| COc1ccc2c(c1C(=O)[O-])O[B-](O)(O)[C@@H](C)C2.[Na+].[Na+] [Compound 11, Disodium; (3S)-4,4-dihydroxy-8-methoxy-3-methyl-5-oxa-4-boranuidabicyclo[4.4.0]deca-1(6),7,9-triene-7-carboxylate] | X (X = MPC@4 ≤ 5 μg/mL) |
| NCCn1cc(COc2ccc3c(c2C(=O)O)O[B-](O)(O)CC3)nn1 [Compound 23, Disodium; 8-[[1-(2-aminoethyl)triazol-4-yl]methoxy]-4,4-dihydroxy-5-oxa-4-boranuidabicyclo[4.4.0]deca-1(6),7,9-triene-7-carboxylate] | X (X = MPC@4 ≤ 5 μg/mL) |
| COc1ccc2c(c1C(=O)[O-])O[B-](O)(O)CC2.[Na+].[Na+] [Compound 7, DISODIUM; 4,4-DIHYDROXY-8-METHOXY-5-OXA-4-BORANUIDABICYCLO[4.4.0]DECA-1(6),7,9-TRIENE-7-CARBOXYLATE] | X (X = MPC@4 ≤ 5 μg/mL) |
| O=C([O-])c1c(O)ccc2c1O[B-](O)(O)CC2.[Na+].[Na+] [Compound 42, Disodium; 4,4,8-trihydroxy-5-oxa-4-boranuidabicyclo[4.4.0]deca-1(6),7,9-triene-7-carboxylate] | Y (Y = 5 μg/mL < MPC@4 ≤ 20 μg/mL) |
| NCCn1cc(-c2ccc3c(c2C(=O)O)O[B-](O)(O)CC3)nn1 [Compound 17, Disodium; 8-[1-(2-aminoethyl)triazol-4-yl]-4,4-dihydroxy-5-oxa-4-boranuidabicyclo[4.4.0]deca-1(6),7,9-triene-7-carboxylate] | Y (Y = 5 μg/mL < MPC@4 ≤ 20 μg/mL) |
| O=C([O-])c1c(OCC(F)F)ccc2c1O[B-](O)(O)CC2.[Na+].[Na+] [Compound 29, Disodium; 8-(2,2-difluoroethoxy)-4,4-dihydroxy-5-oxa-4-boranuidabicyclo[4.4.0]deca-1(6),7,9-triene-7-carboxylate] | X (X = MPC@4 ≤ 5 μg/mL) |
| CCOc1ccc2c(c1C(=O)[O-])O[B-](O)(O)CC2.[Na+].[Na+] [Compound 57, Disodium; 8-ethoxy-4,4-dihydroxy-5-oxa-4-boranuidabicyclo[4.4.0]deca-1(6),7,9-triene-7-carboxylate] | X (X = MPC@4 ≤ 5 μg/mL) |
| [2H]C1([2H])Cc2ccc(OC)c(C(=O)[O-])c2O[B-]1(O)O.[Na+].[Na+] [Compound 60, Disodium; 3,3-dideuterio-4,4-dihydroxy-8-methoxy-5-oxa-4-boranuidabicyclo[4.4.0]deca-1(10),6,8-triene-7-carboxylate] | X (X = MPC@4 ≤ 5 μg/mL) |
| O=C([O-])c1c(OCc2ccncc2)ccc2c1O[B-](O)(O)CC2.[Na+].[Na+] [Compound 28, Disodium; 4,4-dihydroxy-8-(4-pyridylmethoxy)-5-oxa-4-boranuidabicyclo[4.4.0]deca-1(6),7,9-triene-7-carboxylate] | X (X = MPC@4 ≤ 5 μg/mL) |
| N#Cc1ccc2c(c1C(=O)[O-])O[B-](O)(O)CC2.[Na+].[Na+] [Compound 54, Disodium; 8-cyano-4,4-dihydroxy-5-oxa-4-boranuidabicyclo[4.4.0]deca-1(6),7,9-triene-7-carboxylate] | Y (Y = 5 μg/mL < MPC@4 ≤ 20 μg/mL) |
| O=C([O-])c1nccc2c1O[B-](O)(O)CC2.[Na+].[Na+] [Compound 6, DISODIUM; 4,4-DIHYDROXY-5-OXA-8-AZA-4-BORANUIDABICYCLO[4.4.0]DECA-1(6),7,9-TRIENE-7-CARBOXYLATE] | X (X = MPC@4 ≤ 5 μg/mL) |
| O=C([O-])c1ccc2c(c1C(=O)[O-])O[B-](O)(O)CC2.[Na+].[Na+].[Na+] [Compound 53, Trisodium; 4,4-dihydroxy-5-oxa-4-boranuidabicyclo[4.4.0]deca-1(6),7,9-triene-7,8-dicarboxylate] | X (X = MPC@4 ≤ 5 μg/mL) |
| O=C([O-])c1c(OCC2CC2)ccc2c1O[B-](O)(O)CC2.[Na+].[Na+] [Compound 45, Disodium; 8-(cyclopropylmethoxy)-4,4-dihydroxy-5-oxa-4-boranuidabicyclo[4.4.0]deca-1(6),7,9-triene-7-carboxylate] | X (X = MPC@4 ≤ 5 μg/mL) |

| Structure (SMILES) | TIG MPC4 ECL1002 |
| --- | --- |
| NCCc1cn(-c2ccc3c(c2C(=O)O)O[B-](O)(O)CC3)nn1 [Compound 14, Disodium; 8-[4-(2-aminoethyl)triazol-1-yl]-4,4-dihydroxy-5-oxa-4-boranuidabicyclo[4.4.0]deca-1(6),7,9-triene-7-carboxylate] | X (X = MPC@4 ≤ 5 μg/mL) |
| O=C(O)c1c(-c2c[nH]nn2)ccc2c1O[B-](O)(O)CC2 [Compound 16, Disodium; 4,4-dihydroxy-8-(1H-triazol-5-yl)-5-oxa-4-boranuidabicyclo[4.4.0]deca-1(6),7,9-triene-7-carboxylate] | X (X = MPC@4 ≤ 5 μg/mL) |
| O=C(O)c1c(CNc2nncs2)ccc2c1OB(O)CC2 [Compound 64, 2-Hydroxy-7-[(1,3,4-thiadiazol-2-ylamino)methyl]-3,4-dihydro-1,2-benzoxaborinine-8-carboxylic acid] | X (X = MPC@4 ≤ 5 μg/mL) |
| O=C([O-])c1c(OCCF)ccc2c1O[B-](O)(O)CC2.[Na+].[Na+] [Compound 43, Disodium; 8-(2-fluoroethoxy)-4,4-dihydroxy-5-oxa-4-boranuidabicyclo[4.4.0]deca-1(6),7,9-triene-7-carboxylate] | X (X = MPC@4 ≤ 5 μg/mL) |
| O=C([O-])c1c(CO)ccc2c1O[B-](O)(O)CC2.[Na+].[Na+] [Compound 49, Disodium; 4,4-dihydroxy-8-(hydroxymethyl)-5-oxa-4-boranuidabicyclo[4.4.0]deca-1(6),7,9-triene-7-carboxylate] | X (X = MPC@4 ≤ 5 μg/mL) |
| O=C([O-])c1ccnc2c1O[B-](O)(O)CC2.[Na+].[Na+] [Compound 38, Disodium; 8,8-dihydroxy-7-oxa-2-aza-8-boranuidabicyclo[4.4.0]deca-1,3,5-triene-5-carboxylate] | Y (Y = 5 μg/mL < MPC@4 ≤ 20 μg/mL) |
| NS(=O)(=O)Nc1ccc2c(c1C(=O)[O-])O[B-](O)(O)CC2.[Na+].[Na+] [Compound 52, Disodium; 4,4-dihydroxy-8-(sulfamoylamino)-5-oxa-4-boranuidabicyclo[4.4.0]deca-1(6),7,9-triene-7-carboxylate] | X (X = MPC@4 ≤ 5 μg/mL) |
| O=C([O-])c1c(OCC#CCO)ccc2c1O[B-](O)(O)CC2.[Na+].[Na+] [Compound 30, Disodium; 4,4-dihydroxy-8-(4-hydroxybut-2-ynoxy)-5-oxa-4-boranuidabicyclo[4.4.0]deca-1(6),7,9-triene-7-carboxylate] | X (X = MPC@4 ≤ 5 μg/mL) |
| Nc1nnc(C(=O)NC2CB(O)Oc3c(C(=O)O)cccc32)s1 (stereo not drawn) [Compound 2, 4-(5-AMINO-1,3,4-THIADIAZOLE-2-CARBOXAMIDO)-2-HYDROXY-3,4-DIHYDRO-2H-BENZO[E][1,2]OXABORININE-8-CARBOXYLIC ACID] | X (X = MPC@4 ≤ 5 μg/mL) |
| CN(C)CCOc1ccc2c(c1C(=O)[O-])O[B-](O)(O)CC2.[Na+].[Na+] [Compound 48, Disodium; 8-[2-(dimethylamino)ethoxy]-4,4-dihydroxy-5-oxa-4-boranuidabicyclo[4.4.0]deca-1(6),7,9-triene-7-carboxylate] | X (X = MPC@4 ≤ 5 μg/mL) |
| O=C(O)c1cccc2c1OB(O)CN2S(=O)(=O)Cc1ccccc1 [Compound 4, 4-(BENZYLSULFONYL)-2-HYDROXY-3,4-DIHYDRO-2H-BENZO[E][1,4,2]OXAZABORININE-8-CARBOXYLIC ACID] | Y (Y = 5 μg/mL < MPC@4 ≤ 20 μg/mL) |
| NCCCSCc1ccc2c(c1C(=O)[O-])O[B-](O)(O)CC2.[Na+].[Na+] [Compound 21, Disodium; 8-(3-aminopropylsulfanylmethyl)-4,4-dihydroxy-5-oxa-4-boranuidabicyclo[4.4.0]deca-1(6),7,9-triene-7-carboxylate] | X (X = MPC@4 ≤ 5 μg/mL) |
| O=C(O)c1cccc2c1OB(O)CC2 [Compound 5, 2-HYDROXY-3,4-DIHYDRO-1,2-BENZOXABORININE-8-CARBOXYLIC ACID] | X (X = MPC@4 ≤ 5 μg/mL) |
| O=C([O-])c1c(CSC2CNC2)ccc2c1O[B-](O)(O)CC2.[Na+].[Na+] [Compound 19, Disodium; 8-(azetidin-3-ylsulfanylmethyl)-4,4-dihydroxy-5-oxa-4-boranuidabicyclo[4.4.0]deca-1(6),7,9-triene-7-carboxylate] | X (X = MPC@4 ≤ 5 μg/mL) |
| NC(=O)COc1ccc2c(c1C(=O)O)OB(O)CC2 [Compound 46, 7-(2-Amino-2-oxo-ethoxy)-2-hydroxy-3,4-dihydro-1,2-benzoxaborinine-8-carboxylic acid] | X (X = MPC@4 ≤ 5 μg/mL) |
| COc1ccc2c(c1C(=O)[O-])O[B-](O)(O)[C@@H](CCO)C2.[Na+].[Na+] [Compound 12, Disodium; (3R)-4,4-dihydroxy-3-(2-hydroxyethyl)-8-methoxy-5-oxa-4-boranuidabicyclo[4.4.0]deca-1(6),7,9-triene-7-carboxylate] | X (X = MPC@4 ≤ 5 μg/mL) |
